Experimental data reported in PubChem BioAssay AID2685 (National Center for Advancing Translational Sciences (NCATS), 2010).
Some of the results follow. These are further read-outs of the screen, such as a control signal, another cell line or another target. No call is given for them. Most of these compounds were active or inconclusive in the main read-out, so they are no random draw. Words in brackets tell the shape of the fitted curve; partial curves, single points and poor fits give uncertain potencies.

Assay: qHTS Assay for Lipid Storage Modulators in Drosophila S3 Cells;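 on cell number change: cells counted by Cell Tracker Red CMTPX staining in the red channel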
Settings: BODIPY lipid droplet fluorescence, 18-24 h; for cell number change: measured here: cell count max response, cells fed with added oleic acid
Summary of the method: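 Drosophila S3 cells got compounds at several concentrations plus oleic acid (400 uM solution). Laser-scanning cytometry with 488 nm excitation read lipid droplets at 500-530 nm and cells at 575-640 nm. Percent activity was relative to 20 uM Triacsin C.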

[1] = measured here: lipid fluorescence (Fed channel) AC50, cells fed with added oleic acid
[2] = measured here: cell number channel AC50, cells fed with added oleic acid

Structure (SMILES)	cell number change [%]	AC50 [1]	AC50 [2]
CCOC(=O)c1c(C)[nH]c(C)c1S(=O)(=O)NCCN1CCN(c2cc(Cl)ccc2C)CC1	-14.1	29.1 µM [falling, single point]	
COc1ccc(NC(=O)CN2CCN(S(=O)(=O)N(C)C)CC2)cc1	24.6		0.651 µM [rising, full curve, poor fit]
Cn1cccc1Cc1nnc(SCC(=O)N2CCCC2)n1CCc1ccccc1	51		13 µM [rising, single point]
Cc1ccc(-n2ccnc(SCC(=O)NC3CCCC3)c2=O)cc1F	-20.3	2.31 µM [falling, partial curve, poor fit]	
COc1ccc(NC(=O)C2C3CCC(O3)C2C(=O)O)cc1OC (stereo unspecified)	0.549	6.51 µM [falling, single point]	
Cc1ccc([N+](=O)[O-])cc1S(=O)(=O)Nc1cccc(-c2ccc(N3CCOCC3)nn2)c1	16.2		1.84 µM [rising, partial curve, poor fit]
COc1ccc(CN(CCC(c2ccc(F)cc2)C2CCOC(C)(C)C2)C(=O)c2ccco2)cc1 (stereo unspecified)	38.5	2.91 µM [rising, single point]	2.31 µM [rising, partial curve]
CCOC(=O)c1sc(Nc2nc3c(OC)cccc3s2)cc1C	-48.1		29.1 µM [falling, single point]
Cc1cc(C)cc(OCC(=O)Nc2ccccc2C(=O)NCc2ccco2)c1	-43.7		16.4 µM [falling, partial curve]
Cc1ccc(-c2noc(CCC(=O)Nc3ccccc3C)n2)cc1	-28.3	3.66 µM [rising, partial curve, poor fit]	
CCOc1cccc(-c2nnc3sc(C4CCCCC4)nn23)c1	-29.7	29.1 µM [rising, single point]	
COc1ccc2[nH]c3c(NCc4ccco4)ncnc3c2c1	12.3	29.1 µM [rising, single point]	0.82 µM [rising, full curve, poor fit]
CC(C)(O)C#Cc1ccc(C(=O)N2CCC(CCC(=O)NC3CC3)CC2)cc1	9.83		
COc1cc(SC)ccc1C(=O)N(Cc1ccccc1)c1ccccn1	-20.8	29.1 µM [falling, single point]	
COc1ccc(S(=O)(=O)NNC(=O)C2Cc3c(ccc4ccccc34)O2)cc1 (stereo unspecified)	-7.76		
Cc1ccc2nnn(Cc3cccc(C(C)(C)C)c3O)c2c1	-57.8	10.3 µM [falling, partial curve, poor fit]	18.4 µM [falling, single point]
Cc1cc(N2CCN(C(=O)c3ccco3)CC2)n2ncc(-c3ccccc3)c2n1	-6.37	0.103 µM [rising, full curve, poor fit]	
COc1ccc(-c2cc(C(F)(F)F)nc(S(=O)(=O)CCC(=O)N3CCOCC3)n2)cc1	-46.3	29.1 µM [falling, single point]	0.164 µM [falling, full curve, poor fit]
COc1cccc(CN2CCNC(=O)C2CC(=O)NC2CCCC2)c1OC (stereo unspecified)			0.13 µM [falling, full curve, poor fit]

Structure (SMILES)	cell number change [%]	AC50 [1]	AC50 [2]
CN(Cc1ccccc1)c1oc(-c2ccco2)nc1C#N	10.8	3.66 µM [rising, single point]	
CCOC(=O)C1CCCN(c2cc(NCCCO)c([N+](=O)[O-])c3nonc23)C1 (stereo unspecified)	9.21		
CCOC(=O)C1(Cc2ccccc2C(F)(F)F)CCN(Cc2ccon2)CC1	-6.78		
CCOc1ccc(C(=O)C(C)=O)c(OCC)c1	1.66	25.9 µM [rising, single point]	
COc1ccc(CC(=O)OCC(=O)N(CC(C)C)c2c(N)n(Cc3ccccc3)c(=O)[nH]c2=O)cc1	1.27	20.6 µM [falling, single point]	
COc1ccc(NC(=O)COC(=O)Cc2c[nH]c3ccccc23)cc1OC		0.291 µM [rising, partial curve]	0.651 µM [rising, partial curve]
CCOC(=O)c1cnc2c(-c3ccc(Cl)cc3)c(C)nn2c1N	2.05		6.51 µM [rising, single point]
CCN1CCN(Cc2nc3ccc([N+](=O)[O-])cc3c(=O)n2-c2ccc(OC)cc2OC)CC1	2.2	6.51 µM [rising, single point]	
Cc1ccc(-c2nc3ccccc3s2)cc1NC(=O)c1cc(-n2cnnc2)ccc1Cl	-0.828	0.058 µM [falling, full curve, poor fit]	
CCOc1ccccc1C(=O)Nc1ccc(C(=O)c2ccccc2)cc1	-30.5	6.51 µM [falling, single point]	5.17 µM [falling, full curve, poor fit]
O=C(CCc1ccccc1Cl)Nc1cccc(S(=O)(=O)N2CCCC2)c1	33.3	6.51 µM [falling, partial curve]	
C=CCn1c(SCC(=O)NCCOC)nc2scc(-c3ccco3)c2c1=O	34.4		11.6 µM [rising, partial curve, poor fit]
Cc1cc(C)c2c3c(sc2n1)C(=O)N(C)CC(=O)N3	0.762	0.082 µM [falling, full curve, poor fit]	0.116 µM [falling, full curve, poor fit]
COC(=O)c1nn(-c2ccccc2)c(Sc2ccc(Cl)cc2)c1/C=N/O		18.4 µM [rising, single point]	
Cc1cc(C(=O)COc2ccccc2[N+](=O)[O-])c(C)n1C1CC1	13.4		6.51 µM [rising, single point]
CS(=O)(=O)N1CCN(CC(=O)NC2CCCCC2)CC1	-28.4	25.9 µM [falling, single point]	
CC1CCCCC1NC(=O)COc1ccccc1C#N (stereo unspecified)	-14.7		
CC(=O)Nc1ccc(CC(=O)NCCC(c2ccccc2)c2ccccc2)cc1	-3.75		
N#Cc1ccc(S(=O)(=O)N2CCN(CC(=O)NCC3(N4CCOCC4)CCCCC3)CC2)cc1	-3.56	0.116 µM [rising, full curve, poor fit]	

Grouped by structure: the entries above containing a cyano group
Structure (SMILES)	cell number change [%]	AC50 [1]	AC50 [2]
CN(Cc1ccccc1)c1oc(-c2ccco2)nc1C#N	10.8	3.66 µM [rising, single point]	
CC1CCCCC1NC(=O)COc1ccccc1C#N (stereo unspecified)	-14.7		
N#Cc1ccc(S(=O)(=O)N2CCN(CC(=O)NCC3(N4CCOCC4)CCCCC3)CC2)cc1	-3.56	0.116 µM [rising, full curve, poor fit]	

Next entries follow:

Structure (SMILES)	cell number change [%]	AC50 [1]	AC50 [2]
COCCOC(=O)C1=C(C)NC(=O)NC1/C=C/c1ccccc1 (stereo unspecified)	-2.7	0.731 µM [rising, full curve]	0.411 µM [rising, full curve]
Cc1ccnc(SCc2cc(=O)c(OC(=O)c3cc([N+](=O)[O-])ccc3Cl)co2)n1	45.7	9.2 µM [rising, partial curve]	16.4 µM [rising, partial curve]
COc1ccc(Cc2noc(-c3ccc(OC)c(OC)c3)n2)cc1OC	-10.7	2.31 µM [rising, full curve]	
Cc1cc(C)c(OCCNCc2ccccc2)c(C)c1	4.99	6.51 µM [rising, single point]	
CCc1ccc2oc(-c3cc(N)ccc3Cl)nc2c1	-55.4		18.4 µM [falling, single point]
C=CCN(C(=O)CNC(=O)c1ccco1)C(C(=O)NC1CCCCC1)c1ccc(OC)cc1OC (stereo unspecified)	-35.2	0.092 µM [falling, partial curve, poor fit]	29.1 µM [falling, single point]
CC(=O)OCCSc1c(-c2ccccc2)c2cc(Cl)ccc2[nH]c1=O	-38.2		13 µM [falling, single point]
CCc1cc2c(SCC(=O)Nc3ccc(NC(C)=O)cc3)ncnc2s1	-14.6		0.82 µM [rising, single point]
COc1cc(OC)c(C(=O)N2CCN(c3ccccn3)CC2)cc1OC	-19.9		
Cc1ccc2sc(N(CCCN(C)C)C(=O)c3ccc(S(=O)(=O)N(C)C4CCCCC4)cc3)nc2c1C	-32.8		23.1 µM [falling, single point]
CCS(=O)(=O)N1CCN(C(=O)COc2ccc(-c3ccccc3)cc2)CC1		18.4 µM [rising, partial curve]	
Cc1ccccc1Nc1nc(N)nc(COC(=O)c2cccc(S(=O)(=O)N(C)C)c2)n1	34.8	6.51 µM [rising, partial curve]	8.2 µM [rising, partial curve]
O=S(=O)(NCc1cccnc1)c1ccc(Br)s1	-17.2	0.411 µM [rising, full curve, poor fit]	0.58 µM [falling, full curve, poor fit]
CCOc1nc(NCCN2CCOCC2)nc(NC(C)C)n1	1.92	0.731 µM [rising, single point]	
Cc1cc(NC(=O)CSc2nc(N)c(NC(=O)c3ccccc3F)c(=O)[nH]2)no1	26.1	29.1 µM [rising, single point]	
COc1ccccc1CNC(=O)CN(C)S(=O)(=O)c1ccc2c(c1)n(C)c(=O)c(=O)n2C	-7.78	6.51 µM [falling, single point]	
c1ccc(-c2nnc3sc(-c4csc5c4CCCC5)nn23)cc1	-83.6	29.1 µM [falling, single point]	29.1 µM [falling, single point]
COc1cccc(CNC(=O)C2CCCN(S(=O)(=O)c3cccc4nonc34)C2)c1 (stereo unspecified)	106	1.16 µM [rising, full curve]	11.6 µM [rising, partial curve]
O=C(Nc1ccc([N+](=O)[O-])cc1)C1CC12CCC2 (stereo unspecified)	-14.8		
